Reference: PubChem BioAssay AID2685 (National Center for Advancing Translational Sciences (NCATS), 2010)
Some of the results follow. Shown are side measurements of this screen, not its main read-out; they come without a call. The list favours compounds with an active or inconclusive main result. Words in brackets tell the shape of the fitted curve; partial curves, single points and poor fits give uncertain potencies.

Assay: qHTS Assay for Lipid Storage Modulators in Drosophila S3 Cells;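 as to cell number change: cells counted by Cell Tracker Red CMTPX staining in the red channel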
Details: BODIPY lipid droplet fluorescence, 18-24 h; for cell number change: measured here: cell count max response, cells fed with added oleic acid
How it was run: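 Drosophila S3 cells loaded with oleic acid (400 uM, as added) and compounds at several concentrations; lipid droplets imaged by 488-nm laser-scanning cytometry, 500–530 nm intensity and object ratio to cell channel. Percent activity normalized to 20 uM Triacsin C.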

[1] = measured here: cell number channel AC50, cells fed with added oleic acid
[2] = measured here: lipid fluorescence (Fed channel) AC50, cells fed with added oleic acid

| SMILES | cell number change | AC50 [1] | AC50 [2] |
| --- | --- | --- | --- |
| Cc1sc2ncn(CC(=O)NCC(=O)N3CCC4(CC3)OCCO4)c(=O)c2c1C | -10.5% | 0.517 µM [falling, full curve] | – |
| COCCOC(=O)C1=C(N)OC(C)=C(C(=O)OC)C12C(=O)Nc1ccccc12 (centres undefined) | 0.988% | – | 25.9 µM [falling, single point] |
| CCn1c(O)c(N=Nc2cccc(S(=O)(=O)N3CCOCC3)c2)c(=O)n(CC)c1=S | -11.5% | – | 0.651 µM [falling, single point] |
| Cc1ccc(-n2c(O)c(C=Nc3ccc(S(N)(=O)=O)cc3)c(=O)[nH]c2=O)cc1 | -40.9% | 29.1 µM [falling, single point] | 1.46 µM [falling, partial curve] |
| CN(C)CC1CSCCC1(O)c1ccc(C(F)(F)F)cc1 (centres undefined) | -10.9% | – | 23.1 µM [rising, partial curve, poor fit] |
| CCC(=NCc1ccco1)c1c(O)n(C2CCCCC2)c(=O)[nH]c1=O | 44.6% | 29.1 µM [rising, single point] | 3.66 µM [rising, single point] |
| CCOc1ccc(N2C(=O)CC(=O)NC2=O)cc1 | 1.82% | – | – |
| O=C(OCC(=O)c1ccc([N+](=O)[O-])cc1)/C(=C/c1ccc(Cl)cc1)NC(=O)c1ccccc1 | -3.3% | – | 25.9 µM [falling, single point] |
| OC(COCc1ccc(Cl)cc1)CN1CC=C(c2ccccc2)CC1 (centres undefined) | -31.5% | 29.1 µM [falling, single point] | 8.2 µM [falling, partial curve] |
| ClC(Cl)=C(c1ccc(Cl)cc1)c1ccc(Cl)cc1 | 14.3% | – | 14.6 µM [rising, partial curve] |
| CCC(=O)Nc1ccccc1 | 4.6% | – | – |
| COC(=O)C1=C(c2ccc(OC(F)(F)F)cc2)C[C@@H]2CC[C@H]1N2C(=O)NC1Cc2ccccc2C1 | -3.25% | 6.51 µM [falling, single point] | 29.1 µM [falling, partial curve, poor fit] |
| CC(C)(C)C(=O)NC1CCSC1=O (centres undefined) | 10.1% | 0.651 µM [falling, full curve] | 1.03 µM [falling, full curve] |
| CN(C)C(=O)CSc1nnc([C@@H](N)Cc2ccccc2)o1 | 30.7% | 32.6 µM [rising, single point] | – |
| O=c1[nH]c(O)c(/C=C2\C=NN=C2c2ccccc2)c(=O)[nH]1 | – | 6.51 µM [rising, single point] | – |
| CCN1c2nc3c(C)cccn3c(=O)c2CC2(C(=O)N(C)C(=O)N(C)C2=O)C1C (centres undefined) | – | – | 0.651 µM [rising, single point] |
| COc1ccc2c(C)c(CC(=O)N3C[C@H]4C[C@@H](C3)c3cccc(=O)n3C4)c(=O)oc2c1 | 11.4% | – | 29.1 µM [rising, single point] |
| CC(=O)NCC(=O)Nc1ccc(Br)cc1C(=O)c1ccccc1 | 22.8% | – | – |
| Cc1cccc(OP(N)(=O)Oc2cccc(C)c2C)c1C | 5.73% | – | – |
| CCCCC12CNCC(C)(CNC1)C2=O | -14.8% | – | 20.6 µM [falling, partial curve] |

Random excerpt: 2 compounds from above

| SMILES | cell number change | AC50 [1] | AC50 [2] |
| --- | --- | --- | --- |
| Cc1ccc(-n2c(O)c(C=Nc3ccc(S(N)(=O)=O)cc3)c(=O)[nH]c2=O)cc1 | -40.9% | 29.1 µM [falling, single point] | 1.46 µM [falling, partial curve] |
| CC(C)(C)C(=O)NC1CCSC1=O (centres undefined) | 10.1% | 0.651 µM [falling, full curve] | 1.03 µM [falling, full curve] |

Additional entries:

| SMILES | cell number change | AC50 [1] | AC50 [2] |
| --- | --- | --- | --- |
| CCN(CC)C(=O)c1ccc(NC(=O)CSc2nnnn2-c2cc(OC)ccc2OC)cc1 | 22.6% | – | – |
| COc1ccc(NC(=O)c2cn(CCC#N)nc2-c2ccc(OC)c(OC)c2)cc1 | -25.5% | – | 1.03 µM [rising, full curve] |
| CCc1cccc2c(C#N)cn(CC(=O)N3CCOCC3)c12 | -79.2% | 25.9 µM [falling, partial curve] | – |
| Cc1ccc(-c2nc3ccccc3c(=O)n2-c2cc(C)ccn2)cc1 | -26% | – | – |
| CCCCCSc1cc(O)c(C(CNC)C(C)C)cc1OC (centres undefined) | – | – | 4.11 µM [falling, partial curve] |
| Cc1cccc(-c2nc3ccccc3c(=O)n2-n2cccc2)c1 | 18.3% | – | – |
| Cc1sc2ccccc2c1CC1=NCCN1 | 21.7% | – | 4.11 µM [rising, partial curve] |
| O=C(Cn1c(=O)oc2ccc(Cl)cc21)NC1CCCCC1 | – | 6.51 µM [rising, single point] | – |
| O=C1NC(=S)NC(=O)C1C/C=C/c1ccccc1 | 16.6% | – | 0.517 µM [falling, full curve, poor fit] |
| Cn1c(O)c(C(=Nc2ccccc2)SCc2ccccc2Cl)c(=O)n(C)c1=O | -19% | – | 32.6 µM [falling, single point] |
| Cn1c(O)c(/C=C2\C=Nc3ccc(Br)cc32)c(=O)n(C)c1=O | -9.68% | – | 6.51 µM [rising, partial curve, poor fit] |
| COc1ccc(OCCOc2cccc(C=C3C(=O)NC(=O)NC3=O)c2)cc1 | 27.7% | – | 29.1 µM [rising, single point] |
| COc1ccccc1N=Cc1c(O)n(C)c(=O)n(C)c1=O | 32.7% | 0.164 µM [rising, full curve, poor fit] | 3.66 µM [rising, partial curve, poor fit] |
| Cc1ccc(N(C)C(=O)Oc2cccc3cccnc23)cc1 | -3.21% | – | 29.1 µM [rising, single point] |
| CC(C)(O)[C@H]1O[C@H]2CC[C@@]3(C)[C@@](O)(CC[C@H]4Cc5c([nH]c6ccccc56)[C@@]43C)C2=CC1=O | 17.8% | 6.51 µM [rising, single point] | – |
| O=P(NS(=O)(=O)c1ccc(Br)cc1)(Oc1ccccc1)Oc1ccccc1 | -84.1% | 25.9 µM [falling, partial curve] | 6.51 µM [falling, single point] |
| CCOc1ccc([N+](=O)[O-])cc1CNCCc1ccccc1 | -2.5% | 0.13 µM [falling, single point] | 0.103 µM [falling, partial curve, poor fit] |
| COc1ccc(-c2nn(CCC#N)cc2C(=O)NCc2ccccc2)cc1 | 25.2% | – | 4.11 µM [rising, single point] |
| Cc1c(-c2cccc(Cl)c2)nc2ccccc2c1C(=O)N1CCC2(CC1)OCCO2 | -62.7% | 22.4 µM [falling, single point] | 11.2 µM [falling, partial curve] |
| CCN(CCCCOC(=O)c1ccc(OC)c(OC)c1)C(C)Cc1ccc(OC)cc1 (centres undefined) | – | 6.51 µM [falling, single point] | – |

| SMILES | cell number change | AC50 [1] | AC50 [2] |
| --- | --- | --- | --- |
| O=C1/C(=C\c2ccc3c(c2)OCO3)N2CCC1CC2 | 26.1% | – | 13 µM [rising, partial curve, poor fit] |
| CCC1(c2ccccc2)C(=O)N(COC)C(=O)N(COC)C1=O | 31.8% | 0.0651 µM [rising, full curve, poor fit] | 0.092 µM [falling, full curve] |
| COC(=O)C1=C(c2ccc(OC(F)(F)F)cc2)C[C@@H]2CC[C@H]1N2C(=O)N1CCC(O)CC1 | 8.59% | – | 0.146 µM [rising, full curve, poor fit] |
| COc1ccc(C2CN(C)CC2C(=O)c2ccc(F)cc2)cc1Cl (centres undefined) | 27.5% | – | – |
| CN(C)CC1CSCCC1(O)c1cccc(Cl)c1 (centres undefined) | 30.4% | 6.51 µM [rising, full curve, poor fit] | 2.59 µM [rising, partial curve] |
| O=c1c2ccccc2nc(-c2ccc(-c3ccccc3)cc2)n1-c1ccncc1 | – | – | 0.259 µM [rising, full curve, poor fit] |
| O=C(CN1CCN(Cc2ccc(Cl)cc2)C1=O)N1CCC2(CC1)OCCO2 | 14.4% | 1.84 µM [falling, partial curve] | 4.11 µM [falling, single point] |
| CCn1c(C)cc(/C=C2\C(=O)NC(=O)N(c3ccccc3C)C2=O)c1C | 1.86% | – | 0.291 µM [falling, partial curve, poor fit] |
| CCOP(=O)(OCC)C(O)c1ccc2c(c1)OCO2 (centres undefined) | 35% | – | 29.1 µM [rising, single point] |
| CCOC(=O)CSc1ccc(C(=O)N2CCC3(CC2)OCCO3)cc1[N+](=O)[O-] | 17.8% | – | 0.00461 µM [rising, full curve, poor fit] |
| Cc1cc(/C=C2\C(=O)NC(=O)N(Cc3ccccc3)C2=O)c(C)n1-c1ccc(Cl)c(C(=O)O)c1 | 10.2% | 0.164 µM [rising, full curve, poor fit] | 0.146 µM [rising, full curve, poor fit] |
| O=c1[nH]c(=O)n(Cc2ccccc2Cl)c(O)c1/C=C1/C=CC=N1 | 14% | 2.31 µM [rising, partial curve, poor fit] | – |
| C/C(=N\N1CCCCCC1)c1c(O)n(-c2ccc(Cl)cc2)c(=O)[nH]c1=O | -37.6% | 32.6 µM [falling, single point] | 29.1 µM [falling, single point] |
| O=[N+]([O-])c1ccc(N2CCCC(C(F)(F)F)C2)c2ccncc12 (centres undefined) | 5.65% | – | 29.1 µM [falling, single point] |
| CCOc1ccccc1-n1c(O)c(C=Nc2ccc(N(CC)CC)cc2)c(=O)[nH]c1=O | -2.64% | – | – |
| Cc1ccc(Oc2cc(NN3CCCCC3)c([N+](=O)[O-])cc2[N+](=O)[O-])c([N+](=O)[O-])c1 | 16.2% | – | 29.1 µM [rising, single point] |
| Cc1cc(/C=C2/C(=O)NC(=O)N(Cc3ccco3)C2=O)c(C)n1-c1ccc(C(=O)O)cc1 | -3.5% | – | – |
| CCCCCn1c(=O)c(C(=O)NCc2ccc(Cl)cc2)c(O)c2ccccc21 | 8.39% | – | 29.1 µM [falling, single point] |
